Data taken from patent publication US7727976B2.
Some entries of the source have several records that differ or are many. They are shown here; other results are not. The source may hold further records. Values given together differ for a reason that is not stated; they may come from other doses, times, organisms or constructs than stated.

Sequences of proteins named here, by UniProt entry; tags and fusion partners are left off.
UniProt Q12908, whole entry: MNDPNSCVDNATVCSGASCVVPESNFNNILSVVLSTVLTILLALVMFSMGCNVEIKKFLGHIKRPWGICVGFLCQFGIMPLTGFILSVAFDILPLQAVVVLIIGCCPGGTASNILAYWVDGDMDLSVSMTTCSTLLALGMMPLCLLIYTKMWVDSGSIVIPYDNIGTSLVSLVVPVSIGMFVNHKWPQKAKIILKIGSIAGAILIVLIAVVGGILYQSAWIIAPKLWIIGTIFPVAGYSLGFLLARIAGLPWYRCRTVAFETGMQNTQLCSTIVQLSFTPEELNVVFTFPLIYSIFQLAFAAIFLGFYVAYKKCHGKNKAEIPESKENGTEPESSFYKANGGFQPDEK
UniProt Q14973, whole entry: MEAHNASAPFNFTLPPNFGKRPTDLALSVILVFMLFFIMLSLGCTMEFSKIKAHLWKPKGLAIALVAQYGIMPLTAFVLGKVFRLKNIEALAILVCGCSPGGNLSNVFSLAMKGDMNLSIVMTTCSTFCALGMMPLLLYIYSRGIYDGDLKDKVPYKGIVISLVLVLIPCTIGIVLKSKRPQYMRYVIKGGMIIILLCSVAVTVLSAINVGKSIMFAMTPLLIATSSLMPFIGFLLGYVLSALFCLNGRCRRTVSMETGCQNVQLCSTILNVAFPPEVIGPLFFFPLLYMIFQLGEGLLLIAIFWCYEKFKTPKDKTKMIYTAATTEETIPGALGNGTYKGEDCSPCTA

Legend:
hIBAT [1] = target: T1, hIBAT (Homo sapiens, UniProt Q12908); assay: Electrogenic transport in Xenopus oocytes expressing hIBAT (oocyte assay); details: Table 10; relative to glycodeoxycholic acid (GDC) in transporter-expressing oocytes, test sample concentration 100 μM
Text: RNA preparation: Human IBAT and LBAT Transporter cDNAs were subcloned into a modified pGEM plasmid that contains 5′ and 3′ untranslated sequences from the Xenopus β-actin gene. These sequences increase RNA stability and protein expression. Plasmid cDNA was linearized and used as template for in vitro transcription (Epicentre Technologies transcription kit, 4:1 methylated:non-methylated GTP).
Xenopus oocyte isolation. Xenopus laevis frogs were anesthetized by immersion in Tricaine ([…] in deionized water) for 15 min. Oocytes were removed and digested in frog ringer solution (90 mM NaCl, 2 mM KCl, 1 mM MgCl2, 10 mM NaHEPES, pH 7.45, no CaCl2) with 1 mg/mL collagenase (Worthington Type 3) for 80-100 min with shaking. The oocytes were washed 6 times, and the buffer changed to frog ringer solution containing CaCl2 (1.8 mM). Remaining follicle cells were removed if necessary. Cells were incubated at 16° C., and each oocyte injected with […] RNA in 45 μL solution.
Electrophysiology measurements. Transport currents were measured 2-14 days after injection, using a standard two-electrode electrophysiology set-up (Geneclamp 500 amplifier, Digidata 1320/PCLAMP software and ADInstruments hardware and software were used for signal acquisition). Electrodes ([…]) were microfabricated using a Sutter Instrument puller and filled with 3M KCl. […]

hIBAT [2] = target: T1, hIBAT; assay: Inhibition of radiolabeled taurocholate uptake in hIBAT-transfected CHO cells; details: read-out: hIBAT, IC50; Table 9; inhibition of tritiated taurocholate uptake, radiolabelled competition assay in transporter-expressing CHO cells
Method: (§1) CHO cells transfected with either the hIBAT or hLBAT transporter were seeded into 96-well microtiter plates at 100,000 cells/well in 100 μL DMEM containing 10% serum, glutamine and Penstrep. After overnight incubation the media was removed and test compound (25 μL) added at 2× the final desired concentration. Tritiated taurocholate (50,000 CPM/well) was diluted with cold substrate to a final concentration of 5 μM and 25 μL/well of this mixture was added to the plate. After incubating for 1 h at room temperature the solution was removed and the plate washed 4× with PBS at 4° C. 200 μL/well of scintillant is added and the plate then read in a Wallac microbeta counter. The inhibition data is processed by standard methods to calculate an inhibition constant IC50 for the test compound.

hLBAT = hLBAT (Homo sapiens, UniProt Q14973); assay: Inhibition of radiolabeled taurocholate uptake in hLBAT-transfected CHO cells; details: read-out: hLBAT, IC50; Table 9; inhibition of tritiated taurocholate uptake, radiolabelled competition assay in transporter-expressing CHO cells
Method: as §1

Row | SMILES | % Max GDC (hIBAT [1]) | IC50 (hIBAT [2]) | IC50 (hLBAT)
1 | C[C@H](CCC(=O)NCC(=O)O)[C@H]1CC[C@H]2[C@@H]3[C@H](O)C[C@@H]4Cc5[nH]ncc5C[C@]4(C)[C@H]3CC[C@]12C | 21% and 8% | – | –
2 | C[C@H](CCC(=O)NCC(=O)O)[C@H]1CC[C@H]2[C@@H]3CC[C@@H]4Cc5nc(-c6ccc(C(N)=O)cc6)ncc5C[C@]4(C)[C@H]3CC[C@]12C | – | > 300 µM and 140 µM | 20 µM and 2 µM
